# Reference: paper PMC7181738
# Chains of the proteins cited; added tags and fusions are not shown. Residues count along the entry.
# UniProt Q15843, residues 1-76: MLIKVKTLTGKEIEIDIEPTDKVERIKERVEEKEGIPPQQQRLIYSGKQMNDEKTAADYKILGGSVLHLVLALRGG
# No constants are given. Whether binding was seen depends on the method and setting. In cells and extracts the contact can be indirect.
# Target: neural precursor cell-expressed, developmentally downregulated 8 (human (endogenous in HepG2)) (UniProt Q15843)
# Test: co-IP; endogenous proteins; HepG2 cells treated with OA (500 μM) for 24 h; lysate (1.5 mg) with anti-NEDD8 (10 μg) at 4 °C overnight, Protein A/G Sepharose beads; Western blotting
binder,measurement,value
"LXRα (protein, UniProt Q13133 1-447) MSLWLGAPVPDIPPDSAVELWKPGAQDASSQAQGGSSCILREEARMPHSAGGTAGVGLEAAEPTALLTRAEPPSEPTEIRPQKRKKGPAPKMLGNELCSVCGDKASGFHYNVLSCEGCKGFFRRSVIKGAHYICHSGGHCPMDTYMRRKCQECRLRKCRQAGMREECVLSEEQIRLKKLKRQEEEQAHATSLPPRASSPPQILPQLSPEQLGMIEKLVAAQQQCNRRSFSDRLRVTPWPMAPDPHSREARQQRFAHFTELAIVSVQEIVDFAKQLPGFLQLSREDQIALLKTSAIEVMLLETSRRYNPGSESITFLKDFSYNREDFAKAGLQVEFINPIFEFSRAMNELQLNDAEFALLIAISIFSADRPNVQDQLQVERLQHTYVEALHAYVSIHHPHDRLMFPRMLMKLVSLRTLSSVHSEQVFALRLQDKKLPPLLSEIWDVHE",binding,no binding
